# Test results as given in publication PMC4948845.
# Amino acid sequences for entries named in this document (tags omitted).
# UniProt Q9ULG1, whole entry: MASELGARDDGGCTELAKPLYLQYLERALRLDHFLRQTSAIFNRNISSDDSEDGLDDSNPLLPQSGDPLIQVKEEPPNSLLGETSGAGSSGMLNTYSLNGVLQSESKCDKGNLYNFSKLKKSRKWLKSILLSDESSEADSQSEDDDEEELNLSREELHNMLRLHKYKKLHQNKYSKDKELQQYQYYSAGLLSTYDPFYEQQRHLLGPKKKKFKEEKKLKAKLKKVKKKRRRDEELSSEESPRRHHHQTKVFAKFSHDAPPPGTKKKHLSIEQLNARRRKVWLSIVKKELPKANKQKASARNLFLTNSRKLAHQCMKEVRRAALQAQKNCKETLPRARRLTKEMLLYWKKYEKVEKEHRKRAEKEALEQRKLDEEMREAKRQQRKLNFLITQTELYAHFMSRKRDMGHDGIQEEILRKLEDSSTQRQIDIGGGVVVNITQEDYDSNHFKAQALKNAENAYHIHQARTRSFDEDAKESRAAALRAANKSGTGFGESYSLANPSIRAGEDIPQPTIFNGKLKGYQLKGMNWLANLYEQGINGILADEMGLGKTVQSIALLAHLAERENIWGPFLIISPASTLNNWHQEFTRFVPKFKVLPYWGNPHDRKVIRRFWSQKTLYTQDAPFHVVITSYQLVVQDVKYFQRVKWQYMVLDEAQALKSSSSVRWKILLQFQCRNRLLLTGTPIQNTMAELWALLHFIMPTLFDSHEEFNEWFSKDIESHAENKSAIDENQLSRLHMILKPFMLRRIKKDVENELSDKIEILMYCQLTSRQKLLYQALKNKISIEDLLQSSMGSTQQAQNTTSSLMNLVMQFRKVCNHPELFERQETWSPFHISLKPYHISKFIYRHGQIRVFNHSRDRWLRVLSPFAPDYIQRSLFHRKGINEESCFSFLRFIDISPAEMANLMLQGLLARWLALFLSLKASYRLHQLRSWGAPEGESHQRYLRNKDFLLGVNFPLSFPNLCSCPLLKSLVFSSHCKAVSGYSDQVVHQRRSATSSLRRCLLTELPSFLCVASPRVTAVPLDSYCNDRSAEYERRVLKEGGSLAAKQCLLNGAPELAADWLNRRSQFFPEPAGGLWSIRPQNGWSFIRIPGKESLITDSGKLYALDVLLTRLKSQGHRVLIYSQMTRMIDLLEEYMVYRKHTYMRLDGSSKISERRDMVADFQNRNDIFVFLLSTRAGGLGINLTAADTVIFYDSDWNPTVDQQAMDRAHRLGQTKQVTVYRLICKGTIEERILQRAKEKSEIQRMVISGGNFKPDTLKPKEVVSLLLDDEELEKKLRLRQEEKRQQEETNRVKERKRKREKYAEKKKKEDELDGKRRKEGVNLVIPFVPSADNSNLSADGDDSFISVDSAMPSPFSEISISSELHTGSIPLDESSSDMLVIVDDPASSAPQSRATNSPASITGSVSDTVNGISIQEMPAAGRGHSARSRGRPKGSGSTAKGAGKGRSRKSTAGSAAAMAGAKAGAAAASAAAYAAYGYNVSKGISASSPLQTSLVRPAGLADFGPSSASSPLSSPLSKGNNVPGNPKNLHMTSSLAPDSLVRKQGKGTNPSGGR
# The exact form of at least one protein or probe is not confirmed. Where cells or extracts were used, other partners may take part. For some of these results: No signal at the amounts used counts as a negative. For some of these results: A weaker result is weaker than the reference pair of the same experiment.
# What was measured:
# [1] = target: INO80 (HEK293T nuclear extract) (Homo sapiens) (UniProt Q9ULG1); assay: competition with a labelled probe; conditions: 10 mM KCl, 100 mM NaCl, 1 mM EDTA, 10 mM DTT, 1 mM PMSF, 10% glycerol, 1 ug poly(dI-dC), 1 ug tRNA, protein in an extract
# [2] = target: INO80 (HEK293T nuclear extract) (Homo sapiens) (UniProt Q9ULG1); assay: EMSA supershift; conditions: anti-INO80 (ab118787), self-competition almost complete at 1:5; 10 mM KCl, 100 mM NaCl, 1 mM EDTA, 10 mM DTT, 1 mM PMSF, 10% glycerol, 1 ug poly(dI-dC), 1 ug tRNA; protein in an extract; label: 5' Cy3 (probe), unlabeled as competitor
# [3] = vs Cy3-N2, competes at higher concentration (1:5)
sequence,measurement,setting,value
CCCCGACAGCCCCCCGACAGCCCCCCGACAGCC (double strand) [M6],binding result,"[1]; vs Cy3-N2, no displacement at 1:1, competed out at 1:5, decreased affinity",binds more weakly
CCCCGGCAGCCCCCCGGCAGCCCCCCGGCAGCC (double strand) [M3],binding result,"[1]; vs Cy3-N2, unable to compete",no binding
"CCCCGTCAGCCCCCCGTCAGCCCCCCGTCAGCC (double strand) [INO80 binding motif, 3 repeats (33-mer)]",binding result,[2],binds
CCCCGTCAGTTCCCCGTCAGTTCCCCGTCAGTT (double strand) [M1],binding result,"[1]; vs Cy3-N2, unable to compete",no binding
CCCCGTCATCCCCCCGTCATCCCCCCGTCATCC (double strand) [M2],binding result,[1]; [3],binds
CCCCGTCCGCCCCCCGTCCGCCCCCCGTCCGCC (double strand) [M5],binding result,[1]; [3],binds
CCCCTTCAGCCCCCCTTCAGCCCCCCTTCAGCC (double strand) [M4],binding result,[1]; [3],binds
